Results deposited as PubChem BioAssay AID504808 (Drosophila RNAi Screening Center, 2011)

Aim: 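Chromatin factors that keep E2F targets switched off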 (primary screen)
System: Drosophila S2 cells
Reagent: long dsRNA against Drosophila genes
Detection: 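Dual luciferase plate measurements; E2F-specific signal taken as firefly over Renilla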
Reading the numbers: E2F firefly: higher = more E2F reporter activity; Renilla normaliser: higher = more normaliser reporter signal
Call rule: 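a knock-down counted as active when the firefly/Renilla E2F signal rose above 50%, a threshold chosen arbitrarily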
The screen tested about 21,000 reagents; below is a random part of those that have a named target and a result. In the full data, 18 (0.084%) got an active call. 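Raw counts without plate normalisation, one of two replicates; the ratio scores behind the calls were not deposited.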 A number with no mark means an inactive call. Names joined by + are all predicted targets of the reagent. Not given: the amount of reagent, the time to read-out.

no.	gene knocked down	amplicon	E2F firefly, rep 1	Renilla normaliser, rep 1
1	BaraA1 + BaraA2	DRSC05417	1.34e5	5013
2	CG8461	DRSC16424	82492	3344
3	Gdap2	DRSC06789	1.49e5	5266
4	Gdap2	DRSC06790	1.59e5	5517
5	CG4229	DRSC10407	76836	3061
6	cnc	DRSC14676	1.20e5	6888
7	cnc	DRSC15289	63310	3810
8	cnc	DRSC15600	99672	6800
9	cnc	DRSC15601	1.08e5	8018
10	dlt	DRSC08705	83048	4059
11	CG14864	DRSC14987	1.08e5	5770
12	NKCC	DRSC12140	77282	3103
13	NKCC	DRSC12311	1.43e5	7186
14	CG17349	DRSC02610	87232	3953
15	CG14960	DRSC08419	1.01e5	4287
16	MED15	DRSC00267	71932	3502
17	CG13218	DRSC06340	99710	3996
18	CG14853	DRSC14977	1.08e5	5258
19	kz	DRSC18786	1.05e5	5659
20	Gos28	DRSC16292	1.48e5	7338

2 entries from above, arranged by “E2F firefly, rep 1”, highest first:
gene knocked down	amplicon	E2F firefly, rep 1	Renilla normaliser, rep 1
cnc	DRSC15601	1.08e5	8018
cnc	DRSC15600	99672	6800

The listing continues:
no.	gene knocked down	amplicon	E2F firefly, rep 1	Renilla normaliser, rep 1
21	gek	DRSC04688	95502	3262
22	Septin4	DRSC20205	1.72e5	6102
23	Sh	DRSC19214	63819	2467
24	Sh	DRSC19220	83255	2738
25	Sh	DRSC19785	1.40e5	5994
26	Sh	DRSC20055	2.60e5	7217
27	CG15701	DRSC06572	1.64e5	5078
28	Gr57a	DRSC06401	97408	4864
29	Hrb87F	DRSC16708	66258	3335
30	CG11162	DRSC19391	1.17e5	6054
31	Trmt6	DRSC03272	1.41e5	5766
32	CG30031 + deltaTry + gammaTry	DRSC07622	97730	4255
33	nau	DRSC17011	1.02e5	5848
34	babos	DRSC03923	1.33e5	4879
35	babos	DRSC04397	81024	3379
